Reference: publication PMC11698047
These are yes or no findings as the source states them, for the method shown.

The chains behind the UniProt entries cited, without tags or fusion partners. Where a name states a change or a piece, a line headed by the entry shows the natural chain unless it says otherwise. A line that says so, or that is headed by a name, gives the form on record, which may keep a tag or linker.
Drosophila melanogaster GTPase Rap1G12V (amino acids 1-180), GMPPNP-loaded (P08645, form named): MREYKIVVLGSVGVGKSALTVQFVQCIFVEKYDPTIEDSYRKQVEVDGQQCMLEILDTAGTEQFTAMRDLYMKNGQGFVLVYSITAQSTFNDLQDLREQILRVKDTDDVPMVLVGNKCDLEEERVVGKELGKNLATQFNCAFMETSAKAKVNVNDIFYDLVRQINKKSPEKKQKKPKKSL

Biological target: Drosophila melanogaster GTPase Rap1G12V (amino acids 1-180), GMPPNP-loaded (Drosophila melanogaster) (UniProt P08645)
Assay: SEC-MALS; 100 µl of individual proteins (200 µM) or RA domain-Rap1G12V-GMPPNP complexes (200 µM complex) on Superdex 200, 0.5 ml/min, buffer C (25 mM HEPES-NaOH pH 7.5, 100 mM NaCl, 5 mM MgCl2, 0.1% β-ME) with 0.2 g/l sodium azide; in duplicate; both purified

binding: no binding (tested: 200 µM)
Substance: Drosophila melanogaster GTPase Rap1G12V (amino acids 1-180), GMPPNP-loaded (from UniProt P08645 1-180) (enzyme)
